Results are given in words; binding and its absence hold for the method and conditions named. Tags and fused reporters may be left off the sequences shown.
Biological target: 5′Nuc/SUMO fusion protein (Glossina morsitans morsitans 5′nucleotidase-related protein, recombinant, refolded) (Glossina morsitans morsitans) (UniProt Q95P65)
Experiment: SEC; Superdex 200 gel filtration of refolded, concentrated 5′Nuc/SUMO in 1 mM piperazin pH 9.5, 100 mM NaCl; monomer separated from aggregates and impurities; both purified

B1: 5′Nuc/SUMO fusion protein (Glossina morsitans morsitans 5′nucleotidase-related protein, recombinant, refolded) (enzyme, UniProt Q95P65 26-555)
chain: DDLYPLTIMHTNDFHARFEETNVKGNPCKSGEKCIGGLARVLHTIKKIIKEQEKKNIESLYINAGDNFQGTIWYNIGRWNVTSELMNIQPPDVMVLGNHEFDHGIDGLLPFLNNMDKTEIVVANMDARDEPQVAKKIKPFTIIKKKYRNIGVIGVVVEEVPDLANTGKLKFRNESEAILEAARNLKKEDPSVNIIIVVSHVGFDVDKIIAERTGSEVDIIVGGHSHTVLYTGTPPGPEKPEDNYPYVYNHPSGNKVLVVQAVCHAKYVGNLTVFFDKKGKVVTYEGAPIYMDTKVEQDKDVLEAMKPWRKLIDEKTKLVVGRTNVDLPRDICRSEECALGNLYTDSMIYAFGGKENCKSGSTWTTAPIAFVHAGAMRSSLHQGDILYSDALLLSPFTNMVVAYDLPGAQLKAALEFSAAPKNEDEKRRFLQMSGLKVTYNMSRAANNRIVDLKVRTNVCPYDQYENLDEKKTYRVVSPSFLQGGGDGFKMLRDYAKNIQNQKIDLDALVDYLKKFSPLAPKAEGRITIIH
  binding: no binding

Source: publication PMC2843633
